Measured data: PubChem BioAssay AID1259308 (NCATS, 2017)
Aim: 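Candidate targets for better recombinant protein yield in mammalian cells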 (primary screen). System: human HEK293 embryonic kidney cells stably expressing firefly luciferase (HEK-CMV-Luc2-Hygro). Knock-down reagent: single siRNA against human genes, 0.8 pmol siRNA per well. Timing: 72 h. Detection: 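Luciferase light (ONE-Glo) measured on one replicate plate set and viability (CellTiter-Glo) on the other, scaled to a negative control siRNA, with robust z-scores and luciferase per cell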. Reading the numbers: total luciferase, z-score and total luciferase, % of control: higher = more reporter protein produced; luciferase per cell, z-score: higher = more reporter output per viable cell; viable cells, % of control: higher = more viable cells. Hit rule: 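Active when the median/MAD z-score for overall luciferase is greater than 3; a gene was taken forward for validation with new siRNAs if at least two of its three siRNAs passed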. Meaning of the calls: active = raised luciferase; inactive = no rise.
Shown is one part, drawn at random, of about 59,000 deposited reagents. Over the whole deposit, about 1,510 (2.6%) got an active call. 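Calls use total luciferase alone and ignore viability, so some active siRNAs may act by altering cell number.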 Unmarked entries are inactive. The numbers tell different reagents against one gene apart. No sequences are given here.

gene symbol | reagent | total luciferase, z-score | total luciferase, % of control | luciferase per cell, z-score | viable cells, % of control
HDDC3 (HD domain containing 3) | 1 | -0.737 | 67.2 | 0.765 | 61.4
HDDC3 (HD domain containing 3) | 2 | -0.879 | 64.4 | 1.61 | 47
HDDC3 (HD domain containing 3) | 3 | -0.936 | 63.3 | -1.32 | 100
DDX39B (DExD-box helicase 39B) | 1 | -0.864 | 64.7 | -1.37 | 104
DDX39B (DExD-box helicase 39B) | 2 | -1.32 | 55.6 | -1.11 | 83.3
DDX39B (DExD-box helicase 39B) | 3 | 1.59 | 113 | 2.06 | 73.7
OR8G1 (olfactory receptor family 8 subfamily G member 1) | 1 | -1.37 | 54.6 | -1.72 | 95.9
OR8G1 (olfactory receptor family 8 subfamily G member 1) | 2 | -0.333 | 75.3 | -0.653 | 99.9
OR8G1 (olfactory receptor family 8 subfamily G member 1) | 3 | 0.308 | 88 | -0.0223 | 98.9
TAT (tyrosine aminotransferase) | 1 | -0.576 | 70.4 | -0.676 | 94
TAT (tyrosine aminotransferase) | 2 | -0.162 | 78.7 | -0.723 | 106
TAT (tyrosine aminotransferase) | 3 | 1.09 | 104 | 0.695 | 96.4
CYP7A1 (cytochrome P450 family 7 subfamily A member 1) | 1 | 0.263 | 87.1 | 0.668 | 81.7
CYP7A1 (cytochrome P450 family 7 subfamily A member 1) | 2 | -0.876 | 64.5 | -0.644 | 85.3
CYP7A1 (cytochrome P450 family 7 subfamily A member 1) | 3 | -0.687 | 68.2 | -1.41 | 111
MSANTD2 (Myb/SANT DNA binding domain containing 2) | 1 | -1.47 | 52.6 | -0.824 | 73
MSANTD2 (Myb/SANT DNA binding domain containing 2) | 2 | -1.68 | 48.5 | -1.64 | 83.6
MSANTD2 (Myb/SANT DNA binding domain containing 2) | 3 | 1.74 | 117 | 2.28 | 71.5
MRPL32 (mitochondrial ribosomal protein L32) | 1 | -0.0571 | 80.8 | 0.23 | 84.9
MRPL32 (mitochondrial ribosomal protein L32) | 2 | -0.11 | 79.7 | -0.182 | 93.4
MRPL32 (mitochondrial ribosomal protein L32) | 3 | 0.0317 | 82.5 | 0.178 | 88
C3orf62 (chromosome 3 open reading frame 62) | 1 | -1.3 | 56.1 | -0.658 | 74.5
C3orf62 (chromosome 3 open reading frame 62) | 2 | -1.83 | 45.5 | -2.25 | 91.8
C3orf62 (chromosome 3 open reading frame 62) | 3 | -2.67 | 28.7 | -3 | 70.7
LRRC19 (leucine rich repeat containing 19) | 1 | -0.29 | 76.1 | -0.203 | 89.7
LRRC19 (leucine rich repeat containing 19) | 2 | 1.74 | 117 | 1.34 | 91.5
LRRC19 (leucine rich repeat containing 19) | 3 | 0.288 | 87.6 | 0.448 | 87
VASH2 (vasohibin 2) | 1 | -0.106 | 79.8 | -0.131 | 92.3
VASH2 (vasohibin 2) | 2 | 1.67 | 115 | 1.98 | 76.5
VASH2 (vasohibin 2) | 3 | 0.126 | 84.4 | -0.0232 | 94.9
SPATA8 (spermatogenesis associated 8) | 1 | -0.593 | 70.1 | -0.904 | 99.4
SPATA8 (spermatogenesis associated 8) | 2 | 0.948 | 101 | 0.305 | 104
SPATA8 (spermatogenesis associated 8) | 3 | -0.651 | 68.9 | -0.346 | 84.4
AMDHD1 (amidohydrolase domain containing 1) | 1 | 0.698 | 95.8 | 0.626 | 90.8
AMDHD1 (amidohydrolase domain containing 1) | 2 | -0.0879 | 80.1 | -0.0025 | 89.6
AMDHD1 (amidohydrolase domain containing 1) | 3 | 0.795 | 97.7 | 0.855 | 87.2
WNT5B (Wnt family member 5B) | 1 | 1.02 | 102 | 1.32 | 80.6
WNT5B (Wnt family member 5B) | 2 | -0.242 | 77.1 | 0.238 | 80.9
WNT5B (Wnt family member 5B) | 3 | -0.395 | 74 | -1.04 | 109
CUTC (cutC copper transporter) | 1 | -0.169 | 78.5 | 0.707 | 72.9
CUTC (cutC copper transporter) | 2 | -0.208 | 77.7 | 0.534 | 75.5
CUTC (cutC copper transporter) | 3 | -0.284 | 76.2 | 0.696 | 70.9
OR2M2 (olfactory receptor family 2 subfamily M member 2) | 1 | 1.84 | 118 | 1.31 | 93.8
OR2M2 (olfactory receptor family 2 subfamily M member 2) | 2 | 2.61 | 134 | 2.42 | 79
OR2M2 (olfactory receptor family 2 subfamily M member 2) | 3 | 0.881 | 99.4 | 1.12 | 82.7
TRHDE (thyrotropin releasing hormone degrading enzyme) | 1 | 0.888 | 99.6 | 1.59 | 73.2
TRHDE (thyrotropin releasing hormone degrading enzyme) | 2 | -1.76 | 46.8 | -1.71 | 82.1
TRHDE (thyrotropin releasing hormone degrading enzyme) | 3 | -0.789 | 66.2 | -1.02 | 96.7
HSD17B10 (hydroxysteroid 17-beta dehydrogenase 10) | 1 | -0.165 | 78.6 | 0.0382 | 87
HSD17B10 (hydroxysteroid 17-beta dehydrogenase 10) | 2 | -0.19 | 78.1 | -0.0671 | 88.8
HSD17B10 (hydroxysteroid 17-beta dehydrogenase 10) | 3 | -0.382 | 74.3 | -0.513 | 95
PRCP (prolylcarboxypeptidase) | 1 | -0.438 | 73.2 | -0.607 | 95.9
PRCP (prolylcarboxypeptidase) | 2 | 0.927 | 100 | 1.17 | 82.3
PRCP (prolylcarboxypeptidase) | 3 | -1.78 | 46.6 | -1.75 | 82.4
RNF224 (ring finger protein 224) | 1 | -1.33 | 55.4 | -1.83 | 100
RNF224 (ring finger protein 224) | 2 | 0.727 | 96.3 | 1.11 | 80.5
RNF224 (ring finger protein 224) | 3 | -0.113 | 79.6 | -0.343 | 97.4

10 entries from above, set out differently:
HDDC3 (HD domain containing 3) #3 | total luciferase, z-score: -0.936; total luciferase, % of control: 63.3; luciferase per cell, z-score: -1.32; viable cells, % of control: 100
DDX39B (DExD-box helicase 39B) #1 | total luciferase, z-score: -0.864; total luciferase, % of control: 64.7; luciferase per cell, z-score: -1.37; viable cells, % of control: 104
DDX39B (DExD-box helicase 39B) #2 | total luciferase, z-score: -1.32; total luciferase, % of control: 55.6; luciferase per cell, z-score: -1.11; viable cells, % of control: 83.3
DDX39B (DExD-box helicase 39B) #3 | total luciferase, z-score: 1.59; total luciferase, % of control: 113; luciferase per cell, z-score: 2.06; viable cells, % of control: 73.7
OR8G1 (olfactory receptor family 8 subfamily G member 1) #1 | total luciferase, z-score: -1.37; total luciferase, % of control: 54.6; luciferase per cell, z-score: -1.72; viable cells, % of control: 95.9
OR8G1 (olfactory receptor family 8 subfamily G member 1) #2 | total luciferase, z-score: -0.333; total luciferase, % of control: 75.3; luciferase per cell, z-score: -0.653; viable cells, % of control: 99.9
OR8G1 (olfactory receptor family 8 subfamily G member 1) #3 | total luciferase, z-score: 0.308; total luciferase, % of control: 88; luciferase per cell, z-score: -0.0223; viable cells, % of control: 98.9
TAT (tyrosine aminotransferase) #1 | total luciferase, z-score: -0.576; total luciferase, % of control: 70.4; luciferase per cell, z-score: -0.676; viable cells, % of control: 94
TAT (tyrosine aminotransferase) #2 | total luciferase, z-score: -0.162; total luciferase, % of control: 78.7; luciferase per cell, z-score: -0.723; viable cells, % of control: 106
TAT (tyrosine aminotransferase) #3 | total luciferase, z-score: 1.09; total luciferase, % of control: 104; luciferase per cell, z-score: 0.695; viable cells, % of control: 96.4
